Some entries share one result that the patent states for a list of compounds.
Tested on: A2780 cells
Test: chemotherapy-dependent RNA degradation (RNA integrity number, Agilent 2100 Bioanalyzer) in cultured A2780 cells
Format: cell-based
Details: 24 h, range tested 2.5-40 μM
Experimental: Before starting RNA isolation, an appropriate volume of buffer RLT is prepared by adding β-mercaptoethanol to buffer RLT in a ratio of 10 μl for every 1 ml of solution. RLT buffer is stable for a month after addition of β-ME. […] This precipitate was redissolved by warming at 30° C. and then placing the solution at room temperature. Aliquots of 0.5 ml RLT buffer (with β-ME) were placed in Eppendorf microfuge tubes prior to RNA isolation procedures. […] The resulting lysate is passed at least 5 times through a 20-gauge needle (0.9 mm diameter) fitted to an RNase-free syringe to shear associated genomic DNA. The sheared lysate is then transferred to a microcentrifuge tube and centrifuged at maximum speed for 3 minutes, with transfer of the supernatant to a new tube. […]
This document includes a detailed description on setting up the assay equipment, preparing and running the RNA Nanochips, and analysis of the capillary electrophoretic data using the Agilent […] Bioanalyzer and its associated “Expert software”. […] The sizes of the rRNAs, and the concentration of RNA in a given sample are determined by extrapolation from a standard curve of reference RNAs provided in the RNA 6000 NANO kits. […] The Agilent 2100 Expert software was used to obtain all data from the capillary electrophoresis runs, including the RNA quality and quantity for a given RNA preparation.

SMILES: CC(=O)O[C@H]1C(=O)[C@@]2(C)[C@H]([C@H](OC(=O)c3ccccc3)[C@]3(O)C[C@H](OC(=O)[C@H](O)[C@@H](NC(=O)c4ccccc4)c4ccccc4)C(C)=C1C3(C)C)[C@]1(OC(C)=O)CO[C@@H]1C[C@@H]2O [paclitaxel]
- concentration at which reductions in RNA integrity are induced: ≥ 20 µM

From patent publication US10590463B2, “Diagnostic methods and kits for monitoring response to chemotherapy in ovarian cancer” (RNA Disgnostics Inc., priority 2011, dated 2020)
